## Assay results

Source: PubChem BioAssay AID504749 (NCATS, 2011).

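Malaria parasite (P. falciparum) lines kept in red blood cells; parasite DNA is measured by SYBR Green fluorescence after lysis, 72 h after compound addition.
Each compound was titrated across a series from about 0.000037 to 29 µM.
The number is the fitted AC50, the concentration giving a half-maximal change in signal; a lower value means higher potency, whether the curve shows a decrease or an increase.
Calls follow the curve class and fit quality: every row here is inconclusive, covering signal-raising curves and weak, poorly fitted, partial or highest-dose-only inhibition curves.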

Values are in µM.
All entries here are filed as inconclusive.
Only part of the assay is shown, chiefly results filed as inconclusive.
Potencies fitted to partial, single-point or poorly fitting curves are rough.
Some entries filed as inconclusive have a full curve.
The first word of each remark tells which way the curve ran; it can be opposite to the aim of the assay.

- CC[C@@]1(O)CC2CN(CCc3c([nH]c4ccccc34)[C@](C(=O)OC)(c3cc4c(cc3OC)N(C)C3[C@@](O)(C(=O)OC)C(OC(C)=O)[C@]5(CC)C=CCN6CC[C@@]43C65)C2)C1 (stereo partly shown) [CP201] : potency 4.256 µM (inhibitor, full curve)
- CC[C@@]1(O)CC2CN(CCc3c([nH]c4ccccc34)[C@](C(=O)OC)(c3cc4c(cc3OC)N(C)C3[C@@](O)(C(=O)OC)C(OC(C)=O)[C@]5(CC)C=CCN6CC[C@@]43C65)C2)C1 (stereo partly shown) [CP325] : potency 4.256 µM (inhibitor, full curve)
- CC[C@@]1(O)CC2CN(CCc3c([nH]c4ccccc34)[C@](C(=O)OC)(c3cc4c(cc3OC)N(C)C3[C@@](O)(C(=O)OC)C(OC(C)=O)[C@]5(CC)C=CCN6CC[C@@]43C65)C2)C1 (stereo partly shown) [PC15] : potency 3.548 µM (inhibitor, partial curve)
- CC[C@@]1(O)CC2CN(CCc3c([nH]c4ccccc34)[C@](C(=O)OC)(c3cc4c(cc3OC)N(C)C3[C@@](O)(C(=O)OC)C(OC(C)=O)[C@]5(CC)C=CCN6CC[C@@]43C65)C2)C1 (stereo partly shown) [PC26] : potency 2.133 µM (inhibitor, full curve)
- CC[C@@]1(O)CC2CN(CCc3c([nH]c4ccccc34)[C@](C(=O)OC)(c3cc4c(cc3OC)N(C)C3[C@@](O)(C(=O)OC)C(OC(C)=O)[C@]5(CC)C=CCN6CC[C@@]43C65)C2)C1 (stereo partly shown) [CP268] : potency 3.381 µM (inhibitor, full curve)
- CC[C@@]1(O)CC2CN(CCc3c([nH]c4ccccc34)[C@](C(=O)OC)(c3cc4c(cc3OC)N(C)C3[C@@](O)(C(=O)OC)C(OC(C)=O)[C@]5(CC)C=CCN6CC[C@@]43C65)C2)C1 (stereo partly shown) [PC49] : potency 5.012 µM (inhibitor, partial curve)
- CC[C@@]1(O)CC2CN(CCc3c([nH]c4ccccc34)[C@](C(=O)OC)(c3cc4c(cc3OC)N(C)C3[C@@](O)(C(=O)OC)C(OC(C)=O)[C@]5(CC)C=CCN6CC[C@@]43C65)C2)C1 (stereo partly shown) [CP266] : potency 1.694 µM (inhibitor, full curve)
- CC[C@@]1(O)CC2CN(CCc3c([nH]c4ccccc34)[C@](C(=O)OC)(c3cc4c(cc3OC)N(C)C3[C@@](O)(C(=O)OC)C(OC(C)=O)[C@]5(CC)C=CCN6CC[C@@]43C65)C2)C1 (stereo partly shown) [FAB9] : potency 2.818 µM (inhibitor, full curve)
- CC[C@@]1(O)CC2CN(CCc3c([nH]c4ccccc34)[C@](C(=O)OC)(c3cc4c(cc3OC)N(C)C3[C@@](O)(C(=O)OC)C(OC(C)=O)[C@]5(CC)C=CCN6CC[C@@]43C65)C2)C1 (stereo partly shown) [HB3] : potency 0.631 µM (inhibitor, full curve)
- CC(=O)c1ccc2c(c1)N(CCCN(C)C)c1ccccc1S2 [DIV17] : potency 6.424 µM (inhibitor, single point)
- CC(=O)c1ccc2c(c1)N(CCCN(C)C)c1ccccc1S2 [DIV14] : potency 3.612 µM (inhibitor, partial curve)
- CC(=O)c1ccc2c(c1)N(CCCN(C)C)c1ccccc1S2 [P93_24] : potency 3.162 µM (inhibitor, partial curve)
- CC(=O)c1ccc2c(c1)N(CCCN(C)C)c1ccccc1S2 [CP194] : potency 5.103 µM (inhibitor, single point)
- CC(=O)c1ccc2c(c1)N(CCCN(C)C)c1ccccc1S2 [CP203] : potency 5.103 µM (inhibitor, partial curve)
- CC(=O)c1ccc2c(c1)N(CCCN(C)C)c1ccccc1S2 [Dd2] : potency 2.512 µM (inhibitor, partial curve)
- COP(=S)(OC)SCN1C(=O)c2ccccc2C1=O [CP266] : potency 0.0005 µM (activator)
- COP(=S)(OC)SCN1C(=O)c2ccccc2C1=O [CP247] : potency 2.818 µM (inhibitor, full curve)
- CNCC[C@H](Oc1cccc2ccccc12)c1cccs1 [CP215] : potency 13.46 µM (inhibitor, partial curve)
- CNCC[C@H](Oc1cccc2ccccc12)c1cccs1 [CP247] : potency 11.22 µM (inhibitor, single point)
- CNCC[C@H](Oc1cccc2ccccc12)c1cccs1 [CP192] : potency 19.01 µM (inhibitor, single point)
- CNCC[C@H](Oc1cccc2ccccc12)c1cccs1 [CP217] : potency 11.22 µM (inhibitor, partial curve)
- CNCC[C@H](Oc1cccc2ccccc12)c1cccs1 [CP194] : potency 13.46 µM (inhibitor, partial curve)
- CNCC[C@H](Oc1cccc2ccccc12)c1cccs1 [ATS189] : potency 8.912 µM (inhibitor, single point)
- CNCC[C@H](Oc1cccc2ccccc12)c1cccs1 [DFO2036] : potency 10 µM (inhibitor, single point)
- CNCC[C@H](Oc1cccc2ccccc12)c1cccs1 [CP256] : potency 11.22 µM (inhibitor, single point)
- CNCC[C@H](Oc1cccc2ccccc12)c1cccs1 [CP203] : potency 7.569 µM (inhibitor, partial curve)
- CNCC[C@H](Oc1cccc2ccccc12)c1cccs1 [CP269] : potency 16.94 µM (inhibitor, partial curve)
- CNCC[C@H](Oc1cccc2ccccc12)c1cccs1 [JCK] : potency 11.22 µM (inhibitor, single point)
- CNCC[C@H](Oc1cccc2ccccc12)c1cccs1 [CP297] : potency 8.492 µM (inhibitor, single point)
- CNCC[C@H](Oc1cccc2ccccc12)c1cccs1 [CP250] : potency 11.22 µM (inhibitor, single point)
- CNCC[C@H](Oc1cccc2ccccc12)c1cccs1 [SC27B] : potency 11.22 µM (inhibitor, partial curve)

The first 2 entries again:

{"compound": "CC[C@@]1(O)CC2CN(CCc3c([nH]c4ccccc34)[C@](C(=O)OC)(c3cc4c(cc3OC)N(C)C3[C@@](O)(C(=O)OC)C(OC(C)=O)[C@]5(CC)C=CCN6CC[C@@]43C65)C2)C1", "stereo": "stereo partly shown", "condition": "CP201", "potency (µM)": "4.256", "remark": "inhibitor, full curve"}
{"compound": "CC[C@@]1(O)CC2CN(CCc3c([nH]c4ccccc34)[C@](C(=O)OC)(c3cc4c(cc3OC)N(C)C3[C@@](O)(C(=O)OC)C(OC(C)=O)[C@]5(CC)C=CCN6CC[C@@]43C65)C2)C1", "stereo": "stereo partly shown", "condition": "CP325", "potency (µM)": "4.256", "remark": "inhibitor, full curve"}